Results deposited as PubChem BioAssay AID1259424 (University of Nebraska Medical Center, 2018)
Assay: 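Rank knockdowns across the genome by resemblance to the KSR1 depletion profile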 (primary screen). Cells: human HCT116 colon cancer cells. Reagents: siRNA pool against human genes, 50 nM. Detection: 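Log2 levels of six mRNAs (branched-DNA multiplex), adjusted by two reference genes and the non-targeting median, then scored against the average KSR1 knockdown pattern as Pearson r and euclidean distance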. Scale: mean correlation with KSR1 profile and KSR1 correlation: higher = expression change more like KSR1 knockdown; mean distance from KSR1 profile: higher = expression change less like KSR1 knockdown.
In all, the deposit lists about 14,000 reagents; shown is an unselected part. 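Higher correlation or smaller distance means closer resemblance to KSR1 loss; control wells, including KSR1 knockdowns, recur on many plates.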 Reagent sequences are not shown. Not given: the time to read-out.

no.	target	mean correlation with KSR1 profile	mean distance from KSR1 profile	KSR1 correlation, replicate 1	KSR1 correlation, replicate 2	KSR1 correlation, replicate 3
1	CNR2	0.57	1.59	0.497	0.6	0.585
2	ANKRD28	-0.221	1.96	-0.252	-0.377	0.112
3	SMAD5	-0.423	2.81	-0.425	-0.443	-0.446
4	CHRNA9	0.00305	1.45	0.13	-0.415	0.0392
5	UTP4	-0.219	2.41	-0.0727	-0.202	-0.155
6	KNL1	-0.581	3.29	-0.348	-0.545	-0.611
7	TMPRSS4	0.0293	3.3	0.285	-0.0742	0.167
8	LST1	0.326	4.3	0.474	0.231	0.297
9	ACTG2	-0.166	2.25	-0.0757	-0.225	-0.167
10	CHCHD5	0.768	1.96	0.703	0.662	0.863
11	IRAG2	-0.357	2.48	-0.502	-0.483	-0.564
12	SH3GL2	0.884	0.88	0.808	0.873	0.901
13	RAB40C	0.445	1.94	0.487	0.449	0.313
14	SYT16	0.539	2.05	0.26	0.507	0.521
15	FCRL4	-0.688	2.98	-0.699	-0.726	-0.719
16	APOO	-0.161	3.35	-0.43	-0.262	-0.0779
17	STIL	-0.225	2.65	-0.248	-0.254	-0.304
18	PPP1R7	0.191	1.68	0.187	0.133	0.355
19	HHIPL2	0.459	1.54	0.483	0.539	0.327
20	FXR2	0.111	3	0.383	-0.052	0.0866
21	POU2F1	0.219	2.45	0.365	0.507	0.0421
22	POLR2L	-0.815	2.91	-0.549	-0.814	-0.887
23	USP10	-0.381	1.51	-0.142	-0.28	-0.884
24	INTS9	-0.666	2.6	-0.674	-0.611	-0.46
25	XPC	-0.531	3.55	-0.564	-0.539	-0.491
26	IGHG4	-0.348	3.44	-0.458	-0.477	-0.306
27	PPIL2	-0.631	4.38	-0.304	-0.728	-0.807
28	TSPAN16	0.0704	0.904	0.0619	-0.48	-0.234
29	TRAM1	-0.404	1.51	-0.564	-0.366	0.127
30	RAB36	0.0681	1.73	0.038	0.0966	0.0971
31	CENPM	0.504	2.26	0.382	0.284	0.467
32	ANKHD1	0.454	2.45	0.349	0.222	0.439
33	TBC1D25	0.384	0.752	0.374	0.606	0.174
34	CYB561	0.12	2.54	0.12	0.189	-0.0649
35	APOBEC3B	-0.0154	0.945	-0.37	-0.271	0.465
36	HOXA11	0.728	2.3	0.737	0.698	0.736
37	BCKDHA	0.506	3.92	0.307	0.455	0.579
38	SCARF2	0.241	1.14	0.473	-0.0307	0.189
39	RCC1	-0.0868	3.71	-0.261	0.0749	0.145
40	DMAC2	0.15	3.46	0.31	-0.0765	0.0388
41	METRN	0.446	2.51	0.331	0.0724	0.101
42	ARSG	0.312	3.71	0.213	0.523	0.24
43	FRMD4B	-0.283	3.45	-0.112	-0.45	-0.214
44	TMSB4X	0.382	4.51	0.442	0.495	0.000573
45	HSD3B1	0.512	1.85	0.505	0.342	0.511
46	CD6	0.589	1.2	0.79	0.428	0.426
47	KLRC3	0.561	1.15	0.0808	0.543	0.427
48	AKAP12	0.295	1.57	0.282	0.211	0.481
49	CHP2	0.495	1.33	0.213	0.423	0.675
50	TUBA8	-0.41	1.88	-0.369	-0.433	-0.436

Laid out differently: entries from further up.
SMAD5
- mean correlation with KSR1 profile: -0.423
- mean distance from KSR1 profile: 2.81
- KSR1 correlation, replicate 1: -0.425
- KSR1 correlation, replicate 2: -0.443
- KSR1 correlation, replicate 3: -0.446

CHRNA9
- mean correlation with KSR1 profile: 0.00305
- mean distance from KSR1 profile: 1.45
- KSR1 correlation, replicate 1: 0.13
- KSR1 correlation, replicate 2: -0.415
- KSR1 correlation, replicate 3: 0.0392

UTP4
- mean correlation with KSR1 profile: -0.219
- mean distance from KSR1 profile: 2.41
- KSR1 correlation, replicate 1: -0.0727
- KSR1 correlation, replicate 2: -0.202
- KSR1 correlation, replicate 3: -0.155

KNL1
- mean correlation with KSR1 profile: -0.581
- mean distance from KSR1 profile: 3.29
- KSR1 correlation, replicate 1: -0.348
- KSR1 correlation, replicate 2: -0.545
- KSR1 correlation, replicate 3: -0.611

TMPRSS4
- mean correlation with KSR1 profile: 0.0293
- mean distance from KSR1 profile: 3.3
- KSR1 correlation, replicate 1: 0.285
- KSR1 correlation, replicate 2: -0.0742
- KSR1 correlation, replicate 3: 0.167
